According to the supplement of paper PMC8728848:
The other results are listed elsewhere or left out.

What was measured:
Test in all cases: glycan array binding signal (z-score within array); higher = stronger binding
Details in all cases: glycan notation: IUPAC condensed, linker removed
[1] = biological target: GlcNAc(b1-3)Gal(b1-4)GlcNAc
Outline: (§1)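 Columns mapping to the same glycan were averaged after glycan names were converted to IUPAC-condensed notation. The data come from 3228 arrays in the Consortium for Functional Glycomics database, limited to those with an available protein sequence. Binding is reported as a within-array Z-score averaged across arrays of one protein sequence and across linkers.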

[2] = biological target: GlcNAc(b1-3)Gal(b1-4)GlcNAc(b1-2)Man(a1-3)[GlcNAc(b1-3)Gal(b1-4)GlcNAc(b1-2)Man(a1-6)]Man(b1-4)GlcNAc(b1-4)GlcNAc
Outline: as §1

[3] = biological target: GlcNAc(b1-3)Gal(b1-4)GlcNAc(b1-2)Man(a1-3)[GlcNAc(b1-3)Gal(b1-4)GlcNAc(b1-2)Man(a1-6)]Man(b1-4)GlcNAc(b1-4)[Fuc(a1-6)]GlcNAc
Outline: as §1

[4] = biological target: GlcNAc(b1-3)Gal(b1-4)GlcNAc(b1-2)[GlcNAc(b1-3)Gal(b1-4)GlcNAc(b1-6)]Man(a1-6)[GlcNAc(b1-3)Gal(b1-4)GlcNAc(b1-2)Man(a1-3)]Man(b1-4)GlcNAc(b1-4)GlcNAc
Outline: as §1

[5] = biological target: GlcNAc(b1-3)Gal(b1-4)GlcNAc(b1-3)Gal(b1-4)GlcNAc
Outline: as §1

[6] = biological target: GlcNAc(b1-3)Gal(b1-4)GlcNAc(b1-3)Gal(b1-4)GlcNAc(b1-2)Man(a1-3)[GlcNAc(b1-3)Gal(b1-4)GlcNAc(b1-3)Gal(b1-4)GlcNAc(b1-2)Man(a1-6)]Man(b1-4)GlcNAc(b1-4)GlcNAc
Outline: as §1

[7] = biological target: GlcNAc(b1-3)Gal(b1-4)GlcNAc(b1-3)Gal(b1-4)GlcNAc(b1-2)Man(a1-3)[GlcNAc(b1-3)Gal(b1-4)GlcNAc(b1-3)Gal(b1-4)GlcNAc(b1-2)Man(a1-6)]Man(b1-4)GlcNAc(b1-4)[Fuc(a1-6)]GlcNAc
Outline: as §1

[8] = biological target: GlcNAc(b1-3)Gal(b1-4)GlcNAc(b1-3)Gal(b1-4)GlcNAc(b1-2)[GlcNAc(b1-3)Gal(b1-4)GlcNAc(b1-3)Gal(b1-4)GlcNAc(b1-6)]Man(a1-6)[GlcNAc(b1-3)Gal(b1-4)GlcNAc(b1-3)Gal(b1-4)GlcNAc(b1-2)Man(a1-3)]Man(b1-4)GlcNAc(b1-4)[Fuc(a1-6)]GlcNAc
Outline: as §1

[9] = biological target: GlcNAc(b1-3)Gal(b1-4)GlcNAc(b1-3)Gal(b1-4)GlcNAc(b1-3)Gal(b1-4)GlcNAc(b1-2)Man(a1-3)[GlcNAc(b1-3)Gal(b1-4)GlcNAc(b1-3)Gal(b1-4)GlcNAc(b1-3)Gal(b1-4)GlcNAc(b1-2)Man(a1-6)]Man(b1-4)GlcNAc(b1-4)GlcNAc
Outline: as §1

[10] = biological target: GlcNAc(b1-3)Gal(b1-4)GlcNAc(b1-3)Gal(b1-4)GlcNAc(b1-3)Gal(b1-4)GlcNAc(b1-2)Man(a1-3)[GlcNAc(b1-3)Gal(b1-4)GlcNAc(b1-3)Gal(b1-4)GlcNAc(b1-3)Gal(b1-4)GlcNAc(b1-2)Man(a1-6)]Man(b1-4)GlcNAc(b1-4)[Fuc(a1-6)]GlcNAc
Outline: as §1

[11] = biological target: GlcNAc(b1-3)Gal(b1-4)GlcNAc(b1-3)Gal(b1-4)GlcNAc(b1-3)Gal(b1-4)GlcNAc(b1-2)[GlcNAc(b1-3)Gal(b1-4)GlcNAc(b1-3)Gal(b1-4)GlcNAc(b1-3)Gal(b1-4)GlcNAc(b1-6)]Man(a1-6)[GlcNAc(b1-3)Gal(b1-4)GlcNAc(b1-3)Gal(b1-4)GlcNAc(b1-3)Gal(b1-4)GlcNAc(b1-2)Man(a1-3)]Man(b1-4)GlcNAc(b1-4)[Fuc(a1-6)]GlcNAc
Outline: as §1

[12] = biological target: GlcNAc(b1-3)Gal(b1-4)GlcNAc(b1-3)Gal(b1-4)GlcNAc(b1-3)Gal(b1-4)GlcNAc(b1-3)Gal(b1-4)GlcNAc(b1-2)Man(a1-3)[GlcNAc(b1-3)Gal(b1-4)GlcNAc(b1-3)Gal(b1-4)GlcNAc(b1-3)Gal(b1-4)GlcNAc(b1-3)Gal(b1-4)GlcNAc(b1-2)Man(a1-6)]Man(b1-4)GlcNAc(b1-4)GlcNAc
Outline: as §1

[13] = biological target: GlcNAc(b1-3)Gal(b1-4)GlcNAc(b1-3)Gal(b1-4)GlcNAc(b1-3)Gal(b1-4)GlcNAc(b1-3)Gal(b1-4)GlcNAc(b1-2)Man(a1-3)[GlcNAc(b1-3)Gal(b1-4)GlcNAc(b1-3)Gal(b1-4)GlcNAc(b1-3)Gal(b1-4)GlcNAc(b1-3)Gal(b1-4)GlcNAc(b1-2)Man(a1-6)]Man(b1-4)GlcNAc(b1-4)[Fuc(a1-6)]GlcNAc
Outline: as §1

[14] = biological target: GlcNAc(b1-3)Gal(b1-4)GlcNAc(b1-3)Gal(b1-4)GlcNAc(b1-3)Gal(b1-4)GlcNAc(b1-3)Gal(b1-4)GlcNAc(b1-2)[GlcNAc(b1-3)Gal(b1-4)GlcNAc(b1-3)Gal(b1-4)GlcNAc(b1-3)Gal(b1-4)GlcNAc(b1-3)Gal(b1-4)GlcNAc(b1-6)]Man(a1-6)[GlcNAc(b1-3)Gal(b1-4)GlcNAc(b1-3)Gal(b1-4)GlcNAc(b1-3)Gal(b1-4)GlcNAc(b1-3)Gal(b1-4)GlcNAc(b1-2)Man(a1-3)]Man(b1-4)GlcNAc(b1-4)[Fuc(a1-6)]GlcNAc
Outline: as §1

[15] = biological target: GlcNAc(b1-3)Gal(b1-4)GlcNAc(b1-3)Gal(b1-4)GlcNAc(b1-3)GalNAc
Outline: as §1

[16] = biological target: GlcNAc(b1-3)Gal(b1-4)GlcNAc(b1-3)GalNAc
Outline: as §1

[17] = biological target: GlcNAc(b1-3)Gal(b1-4)GlcNAc(b1-3)[GlcNAc(b1-3)Gal(b1-4)GlcNAc(b1-3)]GalNAc
Outline: as §1

[18] = biological target: GlcNAc(b1-3)Gal(b1-4)GlcNAc(b1-6)[Gal(b1-3)]GalNAc
Outline: as §1

[19] = biological target: GlcNAc(b1-3)Gal(b1-4)GlcNAc(b1-6)[GlcNAc(b1-3)Gal(b1-3)]GalNAc
Outline: as §1

[20] = biological target: GlcNAc(b1-3)Gal(b1-4)GlcNAc(b1-6)[GlcNAc(b1-3)]Gal(b1-4)GlcNAc
Outline: as §1

[21] = biological target: GlcNAc(b1-3)GalNAc
Outline: as §1

[22] = biological target: GlcNAc(b1-3)Man
Outline: as §1

[23] = biological target: GlcNAc(b1-3)[GlcNAc(b1-4)][GlcNAc(b1-6)]GlcNAc
Outline: as §1

[24] = biological target: GlcNAc(b1-3)[GlcNAc(b1-6)]Gal(b1-4)GlcNAc
Outline: as §1

[25] = biological target: GlcNAc(b1-3)[GlcNAc(b1-6)]GalNAc
Outline: as §1

[26] = biological target: GlcNAc(b1-4)Gal(b1-4)GlcNAc
Outline: as §1

[27] = biological target: GlcNAc(b1-4)GlcNAc
Outline: as §1

[28] = biological target: GlcNAc(b1-4)GlcNAc(b1-4)GlcNAc
Outline: as §1

[29] = biological target: GlcNAc(b1-4)GlcNAc(b1-4)GlcNAc(b1-4)GlcNAc(b1-4)GlcNAc
Outline: as §1

[30] = biological target: GlcNAc(b1-4)GlcNAc(b1-4)GlcNAc(b1-4)GlcNAc(b1-4)GlcNAc(b1-4)GlcNAc
Outline: as §1

[31] = biological target: GlcNAc(b1-4)[GlcNAc(b1-6)]GalNAc
Outline: as §1

[32] = biological target: GlcNAc(b1-6)Gal(b1-4)GlcNAc
Outline: as §1

[33] = biological target: GlcNAc(b1-6)GalNAc
Outline: as §1

[34] = biological target: GlcNAc6S(b1-3)Gal(b1-4)GlcNAc
Outline: as §1

[35] = biological target: Kdn(a2-3)Gal(b1-3)GalNAc
Outline: as §1

[36] = biological target: Kdn(a2-3)Gal(b1-3)GlcNAc
Outline: as §1

[37] = biological target: Kdn(a2-3)Gal(b1-4)Glc
Outline: as §1

[38] = biological target: Kdn(a2-3)Gal(b1-4)GlcNAc
Outline: as §1

[39] = biological target: Kdn(a2-3)Gal(b1-4)[Fuc(a1-3)]GlcNAc
Outline: as §1

[40] = biological target: Kdn(a2-6)Gal(b1-4)GlcNAc
Outline: as §1

[41] = biological target: Man(a1-2)Man(a1-2)Man(a1-3)Man
Outline: as §1

[42] = biological target: Man(a1-2)Man(a1-2)Man(a1-6)[Man(a1-3)]Man
Outline: as §1

[43] = biological target: Man(a1-2)Man(a1-3)Man
Outline: as §1

[44] = biological target: Man(a1-2)Man(a1-3)[Man(a1-2)Man(a1-6)]Man
Outline: as §1

[45] = biological target: Man(a1-2)Man(a1-3)[Man(a1-2)Man(a1-6)]Man(a1-6)[Man(a1-2)Man(a1-2)Man(a1-3)]Man
Outline: as §1

B1: Pbx1CASH domain (Cryptococcus neoformans) (protein)
chain: MDETKPLWGNPRADGISLACKDSIVERNVVYDATDGAIVLFGSAGSTVKNNHVYARTRVILGGINLVDYEPWDGDYTNVKVHHNHLYALGRYFKVGIVIGPASWSDDTESVVHSASVTDNEFSGGYWGYGIVVASAKNFEVLRNKVIWDGEQGVARFSGVPGS
- glycan array binding signal (z-score) [1]: -0.85
- glycan array binding signal (z-score) [2]: -0.514
- glycan array binding signal (z-score) [3]: 0.751
- glycan array binding signal (z-score) [4]: 0.933
- glycan array binding signal (z-score) [5]: -0.356
- glycan array binding signal (z-score) [6]: 4.67
- glycan array binding signal (z-score) [7]: 1.02
- glycan array binding signal (z-score) [8]: 0.023
- glycan array binding signal (z-score) [9]: -0.818
- glycan array binding signal (z-score) [10]: 0.64
- glycan array binding signal (z-score) [11]: -0.776
- glycan array binding signal (z-score) [12]: 0.389
- glycan array binding signal (z-score) [13]: -0.364
- glycan array binding signal (z-score) [14]: -0.634
- glycan array binding signal (z-score) [15]: 2.04
- glycan array binding signal (z-score) [16]: -0.408
- glycan array binding signal (z-score) [17]: -0.542
- glycan array binding signal (z-score) [18]: 0.217
- glycan array binding signal (z-score) [19]: 0.647
- glycan array binding signal (z-score) [20]: 1.15
- glycan array binding signal (z-score) [21]: -0.874
- glycan array binding signal (z-score) [22]: 0.12
- glycan array binding signal (z-score) [23]: -0.226
- glycan array binding signal (z-score) [24]: -0.897
- glycan array binding signal (z-score) [25]: -0.556
- glycan array binding signal (z-score) [26]: -0.389
- glycan array binding signal (z-score) [27]: -0.404
- glycan array binding signal (z-score) [28]: -0.165
- glycan array binding signal (z-score) [29]: 0.821
- glycan array binding signal (z-score) [30]: 0.043
- glycan array binding signal (z-score) [31]: -0.808
- glycan array binding signal (z-score) [32]: -0.623
- glycan array binding signal (z-score) [33]: -0.421
- glycan array binding signal (z-score) [34]: -0.031
- glycan array binding signal (z-score) [35]: -0.351
- glycan array binding signal (z-score) [36]: -0.869
- glycan array binding signal (z-score) [37]: 0.618
- glycan array binding signal (z-score) [38]: -0.908
- glycan array binding signal (z-score) [39]: 0.887
- glycan array binding signal (z-score) [40]: 0.385
- glycan array binding signal (z-score) [41]: -0.535
- glycan array binding signal (z-score) [42]: 0.606
- glycan array binding signal (z-score) [43]: -0.534
- glycan array binding signal (z-score) [44]: -0.95
- glycan array binding signal (z-score) [45]: -0.112
